## Screening data

Source: PubChem BioAssay AID686998 (Broad Institute, 2013).

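Growth of the yeast Cryptococcus neoformans, measured by an Alamar Blue plate-reader signal after 24 hours of compound exposure.
Percent change in signal, scaled so neutral controls are 0 and positive controls are -100; more negative means stronger growth inhibition.
Inconclusive is filed for a poor-quality curve fit or a flat fit between -70% and -30%; active requires a fitted AC50 at most twice the top valid dose.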

Values are in %.
Every entry below has the call inconclusive.
Only part of the assay is shown, chiefly results filed as inconclusive.

| SMILES | tested on / at | activity change (%) |
|---|---|---|
| `O=C(COC(=O)CCC1CCCC1)Nc1nc2c(F)c(F)c(F)cc2s1` | at 35 µM (top of the series) | -33.69 |
| `O=C(c1ccco1)N1N=C(c2cccs2)CC1c1ccc(F)cc1` (centres undefined) | at 35 µM (top of the series) | -27.66 |
| `CCC(=O)N1CCC1(C)C(=O)Nc1ccc(C)c(C)c1` (centres undefined) | at 35 µM (top of the series) | -1.739 |
| `CCc1ccc(NC(=O)[C@H](C)NC(=O)C2CCN(C(=O)[C@@H](N)CC(C)C)CC2)cc1` | at 35 µM (top of the series) | -41.99 |
| `CCN(CC)C(=O)CSc1ncnc2c1cnn2-c1ccccc1` | at 35 µM (top of the series) | -54.6 |
| `O=C(c1c(Cl)cccc1Cl)N1CCN(c2ccccn2)CC1` | at 35 µM (top of the series) | -18.89 |
| `Cc1ccc(C)c(NC(=O)C2(C)CCN2C(=O)C(C)C)c1` (centres undefined) | at 35 µM (top of the series) | 2.729 |
| `O=C(CSc1ncnc2c1cnn2-c1ccccc1)NCC1CCCO1` (centres undefined) | at 35 µM (top of the series) | -53.02 |
| `CCOC(=O)CNC(=O)CSc1ncnc2c1cnn2-c1ccc(C)cc1` | at 35 µM (top of the series) | -53.14 |
| `CCc1ccccc1NC(=O)C1NC(=O)CC1c1ccccc1` (centres undefined) | at 35 µM (top of the series) | -41.98 |
| `COc1ccc(N2CCN(C(=O)Cc3cccs3)CC2)cc1` | at 35 µM (top of the series) | -11.45 |
| `CCC(=O)N1[C@H](CO)[C@H](c2ccc(-c3ccc(F)cc3)cc2)[C@@H]1CNC(C)=O` | at 35 µM (top of the series) | -21.2 |
| `CCCOc1ccc(CNC(=S)NCc2ccc(OC(C)C)cc2)cc1` | at 35 µM (top of the series) | -21.37 |
| `CO[C@H]1CC[C@@H]2CCOc3c(C#N)cccc3C(=O)N(C)C[C@@H](OC)[C@@H](C)C(=O)N(C)C[C@@H]1O2` | at 35 µM (top of the series) | -30.35 |
| `O=C(C[C@H]1CC[C@@H]2[C@H](COC[C@@H](O)CN2C(=O)c2cnccn2)O1)NCc1ccc(Oc2ccccc2)cc1` | at 35 µM (top of the series) | -46.9 |
| `O=C(N[C@@H]1CC[C@@H](CCn2cc(-c3ccccc3)nn2)O[C@H]1CO)c1cnccn1` | at 35 µM (top of the series) | -48.17 |
| `CCOC(=O)CSc1ncnc2c1cnn2-c1ccc(Cl)cc1` | at 35 µM (top of the series) | -2.63 |
| `Cc1cccc(OCC(=O)NCc2ccc(F)cc2)c1` | at 35 µM (top of the series) | -38.64 |
| `O=C(CSc1ncnc2c1cnn2-c1ccc(F)cc1)NCC1CCCO1` (centres undefined) | at 35 µM (top of the series) | -43.34 |
| `C[C@H](CO)N1C[C@H](C)[C@H](CN(C)C(=O)Nc2ccc3c(c2)OCO3)Oc2ncc(C#CC(C)(C)O)cc2C1=O` | at 35 µM (top of the series) | -38.55 |
| `Cc1cccc(OCC(=O)NCc2ccccc2)c1` | at 35 µM (top of the series) | -47.36 |
| `CC(=O)NC12CC3CC(C1)CC(C(=O)NCC(=O)Nc1c(C)cc(C)cc1C)(C3)C2` | at 35 µM (top of the series) | -12.93 |
| `COc1ccccc1NC(=S)NCc1ccccc1Cl` | at 35 µM (top of the series) | -26.67 |
| `Cc1noc(C)c1S(=O)(=O)Nc1ccc2c(c1)C(=O)N([C@@H](C)CO)C[C@@H](C)[C@H](CN(C)Cc1ccc3c(c1)OCO3)OCCCC[C@H](C)O2` | at 35 µM (top of the series) | -30.71 |
| `Cc1cc(C)c(NC(=O)C2CCCN2C(=O)NC2CCCCC2)c(C)c1` (centres undefined) | at 35 µM (top of the series) | -16.57 |
| `Cc1ccc(N2CCN(C(CCc3ccccc3)C(=O)Nc3c(C)cccc3C)CC2)cc1` (centres undefined) | at 35 µM (top of the series) | -56.48 |
| `Cc1ccc(OCC(=O)NC(C)c2ccccc2)cc1C` (centres undefined) | at 35 µM (top of the series) | -27.88 |
| `O=C(c1ccco1)N1N=C(c2cccs2)CC1c1ccco1` (centres undefined) | at 35 µM (top of the series) | 0.999 |
| `O=C(CSc1ncnc2c1cnn2-c1ccc(F)cc1)NCc1ccc2c(c1)OCO2` | at 35 µM (top of the series) | -6.289 |
| `S=C(Nc1ccccc1Oc1ccccc1)Nc1cccc(Cl)c1Cl` | at 35 µM (top of the series) | -3.063 |
| `C(=Nn1cnnc1)c1ccc2c(c1)CCC2` | at 35 µM (top of the series) | -37.55 |
| `CCC(C)N(C(=O)CSc1ncnc2c1cnn2-c1ccccc1)C1CCS(=O)(=O)C1` (centres undefined) | at 35 µM (top of the series) | -43.49 |
| `Cc1cccc(NC(=O)CN(C)C(=O)C2CCCC2)c1C` | at 35 µM (top of the series) | -39.43 |
| `C[C@@H]1CN([C@@H](C)CO)C(=O)c2cc(NC(=O)C3CC3)ccc2O[C@H]1CN(C)Cc1ccc2c(c1)OCO2` | at 35 µM (top of the series) | 1.094 |
| `Cc1cccc(C)c1NC(=O)C1CCCCN1C` (centres undefined) | at 35 µM (top of the series) | -48.63 |
| `Cc1cccc(C)c1NC(=O)C1NC(=O)CC1c1ccccc1` (centres undefined) | at 35 µM (top of the series) | -48.85 |
| `Cc1noc(C)c1NC(=O)N(C)C[C@H]1Oc2ccc(N(C)C)cc2C(=O)N([C@H](C)CO)C[C@@H]1C` | at 35 µM (top of the series) | -34.71 |
| `Cc1cc(OCC(=O)N(C)Cc2ccccc2)cc(C)c1Cl` | at 35 µM (top of the series) | -43.97 |
| `Cc1cccc(C)c1NC(=O)C1CCCN1C(=O)OC(C)(C)C` (centres undefined) | at 35 µM (top of the series) | -12.39 |
| `O=C(CSc1nc(CCC2CCCC2)nc2ccccc12)NCc1ccc2c(c1)OCO2` | at 35 µM (top of the series) | 14.9 |
| `C[C@@H]1CN([C@H](C)CO)S(=O)(=O)c2ccc(C#Cc3ccccn3)cc2O[C@H]1CN(C)Cc1ccccc1` | at 35 µM (top of the series) | -55.62 |
| `COc1ccc(NC(=O)CSc2ncnc3c2cnn3CCc2ccccc2)cc1` | at 35 µM (top of the series) | -48.53 |
| `CN1CCN(CCCNC(=O)c2ccc(/C=C3\Oc4ccccc4N(Cc4ccccc4F)C3=O)cc2)CC1` | at 35 µM (top of the series) | -24.52 |
| `COCCNC(=O)C[C@H]1C=C[C@H](NS(=O)(=O)c2ccc(C)cc2)[C@@H](CO)O1` | at 35 µM (top of the series) | -44.65 |
| `CC(=O)c1sc(NC(=O)C2(F)C(F)(F)C(F)(F)C(F)(F)C(F)(F)C2(F)F)nc1C` | at 35 µM (top of the series) | -39.9 |
| `O=C(NC(=S)Nc1ccccc1[N+](=O)[O-])c1ccccc1` | at 35 µM (top of the series) | -54.8 |
| `CCCNC(=O)C[C@H]1CC[C@H]2[C@@H](COC[C@@H](O)CN2S(=O)(=O)c2ccc(Oc3ccccc3)cc2)O1` | at 35 µM (top of the series) | -34.69 |
| `Cc1ccc(NC(=O)C(=O)NCCCN2CCCC2=O)c(C)c1` | at 35 µM (top of the series) | -37.42 |

The last 5 entries again:

{"smiles": "COCCNC(=O)C[C@H]1C=C[C@H](NS(=O)(=O)c2ccc(C)cc2)[C@@H](CO)O1", "tested on / at": "at 35 µM (top of the series)", "activity change (%)": "-44.65"}
{"smiles": "CC(=O)c1sc(NC(=O)C2(F)C(F)(F)C(F)(F)C(F)(F)C(F)(F)C2(F)F)nc1C", "tested on / at": "at 35 µM (top of the series)", "activity change (%)": "-39.9"}
{"smiles": "O=C(NC(=S)Nc1ccccc1[N+](=O)[O-])c1ccccc1", "tested on / at": "at 35 µM (top of the series)", "activity change (%)": "-54.8"}
{"smiles": "CCCNC(=O)C[C@H]1CC[C@H]2[C@@H](COC[C@@H](O)CN2S(=O)(=O)c2ccc(Oc3ccccc3)cc2)O1", "tested on / at": "at 35 µM (top of the series)", "activity change (%)": "-34.69"}
{"smiles": "Cc1ccc(NC(=O)C(=O)NCCCN2CCCC2=O)c(C)c1", "tested on / at": "at 35 µM (top of the series)", "activity change (%)": "-37.42"}